According to article PMC5529527:
These are yes or no findings as the source states them, for the method shown. Binding seen in cells or lysates may run through a third protein. Some results given as binding are weak or reduced against the parent protein; the word gives no strength.

By UniProt entry, the sequences of proteins in these tests, tags left out.
UniProt Q62432: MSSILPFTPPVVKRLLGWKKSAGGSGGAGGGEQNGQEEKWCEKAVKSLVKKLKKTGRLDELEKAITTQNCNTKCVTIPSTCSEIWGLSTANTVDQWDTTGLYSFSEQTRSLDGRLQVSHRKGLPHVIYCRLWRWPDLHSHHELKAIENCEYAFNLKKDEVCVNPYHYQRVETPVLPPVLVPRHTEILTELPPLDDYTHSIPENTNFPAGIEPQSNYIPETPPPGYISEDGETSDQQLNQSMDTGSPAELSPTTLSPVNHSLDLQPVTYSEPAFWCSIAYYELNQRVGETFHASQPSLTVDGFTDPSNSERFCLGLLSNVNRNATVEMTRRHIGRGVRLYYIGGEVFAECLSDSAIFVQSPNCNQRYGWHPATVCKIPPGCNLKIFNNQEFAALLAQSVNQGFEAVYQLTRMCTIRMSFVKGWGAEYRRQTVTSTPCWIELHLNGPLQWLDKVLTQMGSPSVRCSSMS
UniProt Q8BUN5: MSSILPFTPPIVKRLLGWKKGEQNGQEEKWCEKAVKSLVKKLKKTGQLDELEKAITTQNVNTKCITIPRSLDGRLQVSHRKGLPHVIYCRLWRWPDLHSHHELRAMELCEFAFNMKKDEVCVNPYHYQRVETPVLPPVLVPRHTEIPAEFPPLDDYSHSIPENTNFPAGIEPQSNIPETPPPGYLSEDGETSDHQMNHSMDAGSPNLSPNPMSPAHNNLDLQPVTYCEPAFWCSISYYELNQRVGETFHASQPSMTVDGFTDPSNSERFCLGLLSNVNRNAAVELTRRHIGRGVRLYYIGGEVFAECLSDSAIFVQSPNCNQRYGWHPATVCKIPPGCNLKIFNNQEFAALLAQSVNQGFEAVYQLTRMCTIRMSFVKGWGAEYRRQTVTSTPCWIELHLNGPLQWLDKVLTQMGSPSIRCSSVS

Key:
[1] = target: T1, TGFβR1 (mouse (endogenous in primary HSCs and AML12)) (UniProt Q64729); experiment: co-IP; co-immunoprecipitation from AML12 cells with or without over-expression of lnc-LFAR1 (Supplementary Fig. 13g)
T1 sequence: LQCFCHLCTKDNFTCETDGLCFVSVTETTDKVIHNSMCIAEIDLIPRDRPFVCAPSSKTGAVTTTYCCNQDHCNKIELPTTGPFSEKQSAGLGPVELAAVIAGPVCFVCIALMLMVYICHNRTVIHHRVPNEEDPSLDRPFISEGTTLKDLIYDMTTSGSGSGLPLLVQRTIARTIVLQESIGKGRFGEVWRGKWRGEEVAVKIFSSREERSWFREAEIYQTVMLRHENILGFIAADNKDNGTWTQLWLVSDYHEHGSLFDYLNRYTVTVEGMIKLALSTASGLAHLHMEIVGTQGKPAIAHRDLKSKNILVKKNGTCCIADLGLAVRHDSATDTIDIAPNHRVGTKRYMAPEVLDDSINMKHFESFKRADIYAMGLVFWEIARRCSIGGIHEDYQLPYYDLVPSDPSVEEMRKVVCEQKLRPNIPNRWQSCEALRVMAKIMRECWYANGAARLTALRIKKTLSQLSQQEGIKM

[2] = target: T1, TGFβR1 (mouse (endogenous in primary HSCs and AML12)); experiment: co-IP; TGFβR1 and Smad2/3 antibodies used for co-immunoprecipitation from lysates of primary HSCs infected with or without LV-lnc-LFAR1; western blot

With Smad2 (from UniProt Q62432 1-467) the binding [1] was “binds” and the binding [2] was “binds”.

In the case of Smad3 (from UniProt Q8BUN5 1-425), the binding [1] is reported as “binds” and the binding [2] is reported as “binds”.
